Data on four molecules can be found in publication PMC4849774.

By UniProt entry, the sequences of proteins in these tests, tags left out. Where a name states a change or a piece, a line headed by the entry shows the natural chain unless it says otherwise.
UniProt Q9DC28: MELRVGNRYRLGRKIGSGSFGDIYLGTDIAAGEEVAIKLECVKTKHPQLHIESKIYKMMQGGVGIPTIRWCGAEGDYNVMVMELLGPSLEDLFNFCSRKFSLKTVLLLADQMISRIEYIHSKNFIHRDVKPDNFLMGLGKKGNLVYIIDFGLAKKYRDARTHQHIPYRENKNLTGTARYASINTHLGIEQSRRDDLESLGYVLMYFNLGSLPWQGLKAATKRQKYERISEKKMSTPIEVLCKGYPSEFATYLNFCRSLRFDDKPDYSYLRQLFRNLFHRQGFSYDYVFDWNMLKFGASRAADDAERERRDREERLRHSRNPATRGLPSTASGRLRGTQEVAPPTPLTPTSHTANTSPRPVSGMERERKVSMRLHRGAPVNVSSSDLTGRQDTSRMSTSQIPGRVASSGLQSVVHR
UniProt P06537: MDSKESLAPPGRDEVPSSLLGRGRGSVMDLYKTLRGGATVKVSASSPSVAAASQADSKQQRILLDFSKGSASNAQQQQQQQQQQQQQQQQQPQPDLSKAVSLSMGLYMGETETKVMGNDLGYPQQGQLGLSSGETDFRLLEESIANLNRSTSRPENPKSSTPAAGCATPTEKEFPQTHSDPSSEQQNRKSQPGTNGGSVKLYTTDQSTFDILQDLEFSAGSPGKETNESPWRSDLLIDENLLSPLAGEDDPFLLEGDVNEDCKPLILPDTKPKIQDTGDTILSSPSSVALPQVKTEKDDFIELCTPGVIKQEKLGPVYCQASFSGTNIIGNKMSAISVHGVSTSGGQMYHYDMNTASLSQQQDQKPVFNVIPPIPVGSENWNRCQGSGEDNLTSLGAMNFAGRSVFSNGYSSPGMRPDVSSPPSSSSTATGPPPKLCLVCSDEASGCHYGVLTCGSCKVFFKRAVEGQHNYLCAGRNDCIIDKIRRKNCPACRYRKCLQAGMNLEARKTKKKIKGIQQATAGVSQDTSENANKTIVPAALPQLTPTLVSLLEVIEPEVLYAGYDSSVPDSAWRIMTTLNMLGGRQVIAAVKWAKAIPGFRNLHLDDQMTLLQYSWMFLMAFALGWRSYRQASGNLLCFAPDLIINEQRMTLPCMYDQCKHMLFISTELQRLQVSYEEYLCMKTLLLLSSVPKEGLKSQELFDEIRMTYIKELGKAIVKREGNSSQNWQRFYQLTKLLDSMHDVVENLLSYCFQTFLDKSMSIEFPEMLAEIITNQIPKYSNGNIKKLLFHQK
UniProt Q921F2: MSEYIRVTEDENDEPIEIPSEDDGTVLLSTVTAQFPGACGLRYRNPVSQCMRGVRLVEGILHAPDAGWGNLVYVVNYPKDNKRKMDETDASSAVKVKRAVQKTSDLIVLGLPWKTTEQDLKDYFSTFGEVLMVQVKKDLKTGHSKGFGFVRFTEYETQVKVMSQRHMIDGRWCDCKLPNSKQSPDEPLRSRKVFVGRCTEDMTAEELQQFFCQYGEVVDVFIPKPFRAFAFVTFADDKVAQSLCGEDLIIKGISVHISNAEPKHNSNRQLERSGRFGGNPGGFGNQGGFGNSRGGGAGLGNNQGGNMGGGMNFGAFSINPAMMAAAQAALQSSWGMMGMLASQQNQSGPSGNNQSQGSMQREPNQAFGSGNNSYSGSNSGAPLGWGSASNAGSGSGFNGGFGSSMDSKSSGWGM

Test in all cases: affinity purification with mass spectrometry; FLAG-His-Myc-CRY1 or -CRY2 expressed in NIH3T3 cells (10 uM MG132, 6 hours), lysed with IP Buffer, precipitated with anti-FLAG M2 agarose, eluted with FLAG peptide, tryptic digestion, LC-MS/MS shotgun proteomics; FH-LacZ as control
Assay [1] addresses T1, FLAG-His-Myc-CRY1 (mouse) (UniProt P97784).
T1 sequence: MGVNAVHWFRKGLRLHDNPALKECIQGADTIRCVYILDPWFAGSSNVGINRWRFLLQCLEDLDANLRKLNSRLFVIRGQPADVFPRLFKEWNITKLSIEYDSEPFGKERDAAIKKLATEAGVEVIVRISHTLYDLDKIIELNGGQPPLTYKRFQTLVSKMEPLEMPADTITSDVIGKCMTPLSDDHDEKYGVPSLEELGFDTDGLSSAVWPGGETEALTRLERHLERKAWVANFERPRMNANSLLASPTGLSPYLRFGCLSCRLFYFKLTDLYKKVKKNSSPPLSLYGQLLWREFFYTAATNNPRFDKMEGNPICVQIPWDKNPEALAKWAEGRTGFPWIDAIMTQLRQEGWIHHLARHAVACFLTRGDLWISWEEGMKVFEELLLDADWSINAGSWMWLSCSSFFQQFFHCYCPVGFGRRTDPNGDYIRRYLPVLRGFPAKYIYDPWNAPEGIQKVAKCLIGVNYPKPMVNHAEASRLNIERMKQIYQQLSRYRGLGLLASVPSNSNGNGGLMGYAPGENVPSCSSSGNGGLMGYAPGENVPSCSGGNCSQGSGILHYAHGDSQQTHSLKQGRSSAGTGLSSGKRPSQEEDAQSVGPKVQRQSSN

Assay [2] addresses T2, FLAG-His-Myc-CRY2 (mouse) (UniProt Q9R194).
T2 sequence: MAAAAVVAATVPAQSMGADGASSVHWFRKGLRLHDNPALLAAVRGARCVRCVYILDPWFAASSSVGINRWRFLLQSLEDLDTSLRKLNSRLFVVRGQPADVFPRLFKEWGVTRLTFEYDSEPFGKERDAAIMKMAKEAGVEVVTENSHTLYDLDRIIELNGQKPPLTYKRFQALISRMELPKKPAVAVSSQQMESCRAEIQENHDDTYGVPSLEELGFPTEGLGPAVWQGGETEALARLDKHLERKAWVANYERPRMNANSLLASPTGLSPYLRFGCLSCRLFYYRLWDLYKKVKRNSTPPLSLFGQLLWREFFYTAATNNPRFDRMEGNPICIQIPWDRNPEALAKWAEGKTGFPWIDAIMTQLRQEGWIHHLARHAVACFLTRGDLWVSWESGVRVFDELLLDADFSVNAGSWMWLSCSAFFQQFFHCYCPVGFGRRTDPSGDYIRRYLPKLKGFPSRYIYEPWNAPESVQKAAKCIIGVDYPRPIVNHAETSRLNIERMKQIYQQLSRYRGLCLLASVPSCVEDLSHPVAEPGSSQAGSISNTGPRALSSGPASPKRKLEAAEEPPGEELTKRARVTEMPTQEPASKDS

Assay [3] has as its target T1, FLAG-His-Myc-CRY1 (mouse). This is another data set of the same source.
Assay [4] deals with T2, FLAG-His-Myc-CRY2 (mouse). The source holds these as a separate data set.

Like-named read-outs stand apart in the source and are kept apart here. Results are given in words; binding and its absence hold for the method and conditions named. In cells and extracts the contact can be indirect. These calls come from enrichment with a bait or labelling near it, and not all partners need be listed. Sequences can lack the tags named with a protein.

With CKIδ (from UniProt Q9DC28 1-415), the binding entry in assay [1] and in assay [2] was “binds” in each case.
As to “glucocorticoid receptor (from UniProt P06537 1-792)”, the binding result in assay [1] and in assay [2] was “binds” throughout.
For the molecule “TAR DNA binding protein 43 (from UniProt Q921F2 1-414)”, the binding entry in assay [1] and in assay [2] was “binds” throughout.

B1: FBXL3 (protein, UniProt Q8C4V4 1-428)
chain: MKRGGRDSDQDSAEEGTAEKPKRPRTTQERSQPCDWGNLLQDIVLHVFKYLPLLDRAHASQVCRNWNQVFHMPDLWRCFEFELNQPATSYLKATHPELIKQIIKRHSNHLQYVSFKVDSSKESAEAACDILSQLVNCSLKTLGLISTARPSFMDLPKSHFISALTVVFVNSKSLSSLKIDDTPVDDPSLKVLVANNSDTLKLLKMSSCPHVSPAGILCVADQCHGLRELALNYHLLSDELLLALSSEKHVRLEHLRIDVVSENPGQTHFHTIQKSSWDAFIKHSPKVNLVMYFFLYEEEFDPFFRYEIPATHLYFGRSVSKDVLGRVGMTCPRLVELVVCANGLRPLDEELIRIAERCKNLSAIGLGECEVSCSAFVEFVKMCGGRLSQLSIMEEVLIPDQKYSLEQIHWEVSKHLGRVWFPDMMPTW
Turning to B1, the binding result in assay [3] and in assay [4] was “binds” in each case.
